For at least one entry, the source does not settle the construct or the ends of the probe. Where cells or extracts were used, other partners may take part. For some assays here: At least one verdict rests on a figure or table, not on a statement of the authors.
Tests used:
[1] = test system: NF1 (nuclear factor 1, family member not resolved by antibody) (human (L02 cells)); assay: competition with a labelled probe; settings: 200-fold unlabeled NF1 consensus fully competed with labeled -462 G; Binding buffer 100 mM Tris, 500 mM KCl, 10 mM DTT; 20 ul), 1 ug poly(dI-dC), 10 ug L02 nuclear extract, 10 fmol probe; protein in an extract; label: 5'-biotin (unlabeled as competitor)
[2] = test system: NF1 (nuclear factor 1, family member not resolved by antibody) (human (L02 cells)); assay: EMSA; settings: labeled positive control, complex at same position as -462 G complex; Binding buffer 100 mM Tris, 500 mM KCl, 10 mM DTT; 20 ul), 1 ug poly(dI-dC), 10 ug L02 nuclear extract, 10 fmol probe; protein in an extract; label: 5'-biotin (unlabeled as competitor)

Sequence: GGGCTAGATGGCTGCCAGCCAAGGCTTCAT (double strand) [NF1 consensus]
- binding result [1]: binds
- binding result [2]: binds
